Results are given in words; binding and its absence hold for the method and conditions named. In cells and extracts the contact can be indirect. Some binding calls cover weakened binding; strength is not graded here.

The chains behind the UniProt entries cited, without tags or fusion partners. Residues count along the entry.
UniProt Q8IWT6: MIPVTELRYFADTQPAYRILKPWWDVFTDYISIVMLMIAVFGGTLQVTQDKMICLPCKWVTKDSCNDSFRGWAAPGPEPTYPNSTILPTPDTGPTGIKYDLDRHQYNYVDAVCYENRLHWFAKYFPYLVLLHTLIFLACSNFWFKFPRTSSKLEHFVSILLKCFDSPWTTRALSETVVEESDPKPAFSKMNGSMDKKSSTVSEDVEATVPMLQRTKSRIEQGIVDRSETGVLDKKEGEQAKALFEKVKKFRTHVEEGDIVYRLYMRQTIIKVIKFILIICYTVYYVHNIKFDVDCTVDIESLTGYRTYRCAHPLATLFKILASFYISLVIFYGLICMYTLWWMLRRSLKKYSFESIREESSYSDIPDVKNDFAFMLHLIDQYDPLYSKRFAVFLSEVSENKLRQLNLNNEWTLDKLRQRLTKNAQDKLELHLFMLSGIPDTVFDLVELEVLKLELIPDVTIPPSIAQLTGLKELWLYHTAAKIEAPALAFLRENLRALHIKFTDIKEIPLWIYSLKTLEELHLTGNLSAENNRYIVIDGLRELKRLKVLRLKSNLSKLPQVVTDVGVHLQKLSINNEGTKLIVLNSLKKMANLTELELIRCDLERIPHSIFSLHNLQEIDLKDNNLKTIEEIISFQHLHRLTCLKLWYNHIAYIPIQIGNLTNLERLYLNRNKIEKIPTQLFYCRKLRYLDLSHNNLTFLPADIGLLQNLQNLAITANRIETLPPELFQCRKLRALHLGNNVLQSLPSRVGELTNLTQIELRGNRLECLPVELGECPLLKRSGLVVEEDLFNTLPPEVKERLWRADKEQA
UniProt Q80WG5: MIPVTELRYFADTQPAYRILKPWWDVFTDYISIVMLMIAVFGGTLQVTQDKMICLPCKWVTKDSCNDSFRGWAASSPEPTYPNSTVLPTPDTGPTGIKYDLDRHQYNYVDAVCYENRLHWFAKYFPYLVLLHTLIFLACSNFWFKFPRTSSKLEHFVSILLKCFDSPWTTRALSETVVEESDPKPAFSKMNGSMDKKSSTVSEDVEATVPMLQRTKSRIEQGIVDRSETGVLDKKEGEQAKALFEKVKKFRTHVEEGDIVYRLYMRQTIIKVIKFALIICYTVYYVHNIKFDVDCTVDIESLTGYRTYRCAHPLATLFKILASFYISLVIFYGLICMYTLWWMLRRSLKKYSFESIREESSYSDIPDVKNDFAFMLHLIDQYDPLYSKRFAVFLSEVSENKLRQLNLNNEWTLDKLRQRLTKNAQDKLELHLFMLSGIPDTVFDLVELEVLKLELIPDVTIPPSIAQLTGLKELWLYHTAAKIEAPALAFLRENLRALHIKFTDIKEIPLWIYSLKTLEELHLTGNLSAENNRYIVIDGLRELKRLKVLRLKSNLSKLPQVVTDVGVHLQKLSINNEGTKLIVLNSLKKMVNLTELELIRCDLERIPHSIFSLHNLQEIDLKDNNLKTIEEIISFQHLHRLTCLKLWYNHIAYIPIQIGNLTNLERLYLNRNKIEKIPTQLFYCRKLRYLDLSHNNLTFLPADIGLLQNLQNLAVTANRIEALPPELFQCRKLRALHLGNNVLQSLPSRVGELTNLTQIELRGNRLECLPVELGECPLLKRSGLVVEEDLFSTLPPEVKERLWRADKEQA
MPRIP-DDK fragment aa 213-545 (Q6WCQ1, residues 213-545): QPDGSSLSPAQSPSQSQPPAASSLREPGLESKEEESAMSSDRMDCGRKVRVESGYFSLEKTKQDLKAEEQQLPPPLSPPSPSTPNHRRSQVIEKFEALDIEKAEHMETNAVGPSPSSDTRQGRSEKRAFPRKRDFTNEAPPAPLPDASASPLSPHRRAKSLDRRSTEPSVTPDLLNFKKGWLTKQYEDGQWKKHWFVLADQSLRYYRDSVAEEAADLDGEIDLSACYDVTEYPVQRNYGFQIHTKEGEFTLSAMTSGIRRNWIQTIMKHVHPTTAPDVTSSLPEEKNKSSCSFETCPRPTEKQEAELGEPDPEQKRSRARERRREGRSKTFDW
MPRIP-DDK fragment aa 389-545 (second PH domain) (Q6WCQ1, residues 389-545): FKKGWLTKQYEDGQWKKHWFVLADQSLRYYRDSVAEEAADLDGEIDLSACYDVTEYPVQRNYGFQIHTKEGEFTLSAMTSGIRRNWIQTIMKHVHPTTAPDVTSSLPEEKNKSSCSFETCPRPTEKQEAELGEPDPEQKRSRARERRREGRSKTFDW
UniProt P97434: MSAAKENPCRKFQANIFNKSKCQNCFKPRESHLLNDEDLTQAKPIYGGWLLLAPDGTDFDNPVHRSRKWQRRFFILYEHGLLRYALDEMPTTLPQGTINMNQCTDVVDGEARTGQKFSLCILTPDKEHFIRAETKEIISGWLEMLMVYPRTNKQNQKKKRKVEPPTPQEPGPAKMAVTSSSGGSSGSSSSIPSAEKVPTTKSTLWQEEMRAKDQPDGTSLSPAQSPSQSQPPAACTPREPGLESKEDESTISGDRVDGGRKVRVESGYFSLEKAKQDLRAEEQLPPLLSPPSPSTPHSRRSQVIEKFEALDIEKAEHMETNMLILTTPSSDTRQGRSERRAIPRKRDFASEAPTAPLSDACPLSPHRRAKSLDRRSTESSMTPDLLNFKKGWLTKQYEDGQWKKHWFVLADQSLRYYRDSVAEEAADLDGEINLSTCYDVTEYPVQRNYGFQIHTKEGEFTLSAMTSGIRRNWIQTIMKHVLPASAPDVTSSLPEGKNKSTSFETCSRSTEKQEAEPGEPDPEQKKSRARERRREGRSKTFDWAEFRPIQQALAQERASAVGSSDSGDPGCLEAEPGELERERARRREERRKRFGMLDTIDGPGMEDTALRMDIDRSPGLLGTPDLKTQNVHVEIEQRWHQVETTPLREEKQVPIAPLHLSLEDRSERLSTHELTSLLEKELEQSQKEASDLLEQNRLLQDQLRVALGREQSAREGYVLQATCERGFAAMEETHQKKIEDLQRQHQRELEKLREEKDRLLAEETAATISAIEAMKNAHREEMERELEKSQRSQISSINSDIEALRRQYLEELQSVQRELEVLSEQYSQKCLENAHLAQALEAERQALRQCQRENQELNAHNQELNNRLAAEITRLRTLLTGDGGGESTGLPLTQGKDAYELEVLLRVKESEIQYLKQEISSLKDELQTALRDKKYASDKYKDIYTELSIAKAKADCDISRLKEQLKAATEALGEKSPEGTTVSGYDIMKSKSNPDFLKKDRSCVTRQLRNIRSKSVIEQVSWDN

The target of assay [1] is full length myc-tagged LRRC8A (UniProt Q8IWT6). Nature of the assay: co-IP.
In assay [2] the target is LRRC8A (endogenous, vascular smooth muscle cells) (mouse (endogenous in VSMCs)) (UniProt Q80WG5). Nature of the assay: co-IP.
Assay [3] shares this target. Nature of the assay: proximity ligation.

Turning to “MPRIP-DDK fragment aa 213-545 (from UniProt Q6WCQ1-2 213-545) (domain or fragment)”, the binding result in assay [1] is “binds”. Still for that read-out and setting: the entry for “MPRIP-DDK fragment aa 389-545 (second PH domain) (from UniProt Q6WCQ1-2 389-545) (domain or fragment)” is “binds”. For the substance “Myosin Phosphatase Rho-Interacting Protein (MPRIP), endogenous in vascular smooth muscle cells (from UniProt P97434 1-1024)”, the binding entry in assay [2] and in assay [3] was “binds” each time.
